Data from paper doi:10.1101/2020.11.17.386557.
These are yes or no findings as the source states them, for the method shown. Some binding calls cover weakened binding; strength is not graded here. Where a sequence is shown, tags or fusion partners need not be part of it.

By UniProt entry, the sequences of proteins in these tests, tags left out.
UniProt P61957: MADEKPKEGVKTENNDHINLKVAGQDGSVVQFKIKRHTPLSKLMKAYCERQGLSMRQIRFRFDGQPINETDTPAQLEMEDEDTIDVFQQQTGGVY

Target: GST-Sumo2 fusion protein (UniProt P61957)
Experiment: pull-down

- binding: binds
B1: Flag-tagged wild type Dcp1a, purified protein (protein, UniProt Q91YD3 1-602)
chain: MALSCSTVRPRRRGSALRSKMELLSRAEQEMSLAALKQHDPYITSIADLTGQVALYTFCPKANQWEKTDIEGTLFVYRRSASPYHGFTIVNRLNMHNLVEPVNKDLEFQLHEPFLLYRNASLSIYSIWFYDKNDCHRIAKLMADVVEEETRRSQQAARDKQSPSQANGCSDQRPIDILEMLSRAKDEYERNQMGGSNISSPGLQPSTQLSNLGSTETLEETPSGSQDKSAPSGHKHLTVEELFGTSLPKEQPTAMGLESEDTDKLLGDASQKEPSSFLPFPFEQSGGAPQSENLGIHSAAHHTVQPEVSTPVLITPASIAQSGDKHPPSYTLPLSPVLSPTLPAEAPTTQVPHLPRNSTMIQAVKTTPRQKSPLLNQPVPELSHSSLVASQSPFRAPVSLANPAGTALPSVDLLQKLRLTPQHDQIQAQPLGKGTMAPSFSSAAGQLATPESFIEPSSKTAAARAAVSASLSNMVLAPTLQSMQQNQDPEVFSQPKVLPSAIPIAGSPLVPATTTAVSSVLLSPSVFQQTVPRAADLERKASSPSPLTVGTAESQRKPSIILSKSQLQDTLIHLIKNDSSFLSTLHAVYLQVLTKNKDNHNL
